# From the odorant receptor screen of Mainland et al. (2015)
# “And” between values parts separate entries of the source, which are not always exact repeats. Equal values may be shown once. Some of the results follow. Single wells; the ratio to wells without odorant was worked out here, and repeats agree poorly.
# Key:
# Test in all cases: odorant receptor activation (CRE luciferase / Renilla) (fold of no-odor wells); higher = more activation
# Settings in all cases: 100 µM
# OR4B1 clone 1189 = system: OR4B1 clone 1189
# OR4C11 clone 1244 = system: OR4C11 clone 1244
# OR4C12 V283L clone 1155 = system: OR4C12 V283L clone 1155
# OR4C15 clone 1337 = system: OR4C15 clone 1337
# OR4C15 clone 1449 = system: OR4C15 clone 1449
# [1] = system: OR4C16 V25L/T76A/L259P clone 1237
# OR4C3 clone 1284 = system: OR4C3 clone 1284
# OR4C3 clone 1480 = system: OR4C3 clone 1480
# OR4C46 K288R clone 1483 = system: OR4C46 K288R clone 1483
# OR4C5 clone 1307 = system: OR4C5 clone 1307
SMILES,odorant receptor activation (OR4B1 clone 1189),odorant receptor activation (OR4C11 clone 1244),odorant receptor activation (OR4C12 V283L clone 1155),odorant receptor activation (OR4C15 clone 1337),odorant receptor activation (OR4C15 clone 1449),odorant receptor activation [1],odorant receptor activation (OR4C3 clone 1284),odorant receptor activation (OR4C3 clone 1480),odorant receptor activation (OR4C46 K288R clone 1483),odorant receptor activation (OR4C5 clone 1307)
CCCCCCCCC=O [nonyl aldehyde],0.766,0.988,1.04,1.15,0.954,0.847,1.04,1.08,1.1,1.14
CC(=O)OC(C)(C)C1CC=C(C)CC1 (stereo not drawn) [terpinyl acetate],0.838,0.968,0.898,0.736,1.02,0.797,1.01,1.05,0.855,1.02
CC12CCC(C1)C(C)(C)C2=O (stereo not drawn) [fenchone],1.03,0.956,0.979,0.895,0.99,1.25,1.04,1.03,1.01,0.968
CCCCCCCC=O [octyl aldehyde],0.765,1.09,1.05,1.21,0.831,0.78,1.3,0.931,1.03,1.2
CCCCCCCOC(C)=O [heptyl acetate],0.818,0.957 and 1.17,0.861,1.15 and 0.993,1.09,0.855,0.488 and 1.04,0.93 and 1.44,1.02 and 1.51,0.985 and 1.09
CCCCCC(=O)O [caproic acid],1.05,0.892,0.996,0.98,0.142,0.695,0.75,0.86,0.973,0.794
CC(C)CCC(=O)O [4-methylvaleric acid],0.903,1.31,0.804,1.1,0.903,0.895,1.08,0.739,0.985,1.5
c1ccc(Oc2ccccc2)cc1 [diphenyl ether],0.979,0.99,1.02,0.904,1.08,0.829,1.4,0.978,1,1.04
CC(=O)OCC=C(C)CCC=C(C)C [geranyl acetate],0.802,0.984 and 1.43,1.63,1.4 and 0.921,1.28,2.33,0.654 and 1.12,0.881 and 1.63,0.856 and 1.32,1.2 and 1.07
CC12CCC(CC1)C(C)(C)O2 [cineole],0.849,1.09,0.834,0.878,0.17,0.772,1.09,0.711,0.832,0.975
C=CC(C)(O)CCC=C(C)C (stereo not drawn) [linalool],0.977,0.844,1.35,0.954,1.14,1.07,1.11,0.816,1.32,0.9
O=C1CCCCCCCCCCCC(=O)OCCO1 [ethylene brassylate],1.86,1.49,1.43,1.3,2.06,1.14,1.49,1.38,1.16,1.63
C=CCc1ccc(O)c(OC)c1 [eugenol],1.42 and 1.51,1.91 and 1.47,2.02 and 1.29,1.12 and 1.28,1.76 and 0.834 and 1.38,0.987,2.06 and 1.57,2.07 and 1.86 and 1.1,2.26 and 1.26 and 1.18,4.23 and 1.8
CC(C)CC(=O)O [isovaleric acid],1.19,1,1.4,1.05,0.737,1.2,0.777,0.826,1.05,0.844
C=CCSCC=C [diallyl sulfide],1.05,1.04,1,0.9,1.3,0.797,0.902,1.17,1.22,1.19
CCCC(=O)O [butyric acid],1.13,1.1,1.11,0.913,0.183,0.817,0.836,0.902,1.22,1.17
CCCCCCOC(=O)CCC [hexyl butyrate],0.905,0.839 and 1.18,1.22,1.44 and 0.977,0.837,0.912,0.91 and 0.645,0.919 and 1.15,0.858 and 0.939,1.05 and 0.943
COc1cc(C)ccc1O [2-methoxy-4-methylphenol],1.12,0.903,1.38,1.06,1.15,1.07,0.844,0.74,0.862,1.07
C=C(C)C1CC=C(C)C(=O)C1 (stereo not drawn) [r-carvone],0.762,0.928,0.759,0.8,1.17,0.684,0.859,0.845,0.863,1.08

# Just odorant receptor activation (OR4C3 clone 1480) (4 entries from above):
SMILES,odorant receptor activation (OR4C3 clone 1480)
CC(C)CCC(=O)O [4-methylvaleric acid],0.739
c1ccc(Oc2ccccc2)cc1 [diphenyl ether],0.978
CC(=O)OCC=C(C)CCC=C(C)C [geranyl acetate],0.881 and 1.63
CC12CCC(CC1)C(C)(C)O2 [cineole],0.711

# Part of the list above in another layout:
SMILES	odorant receptor activation (OR4B1 clone 1189)	odorant receptor activation (OR4C11 clone 1244)	odorant receptor activation (OR4C12 V283L clone 1155)	odorant receptor activation (OR4C15 clone 1337)	odorant receptor activation (OR4C15 clone 1449)	odorant receptor activation [1]	odorant receptor activation (OR4C3 clone 1284)	odorant receptor activation (OR4C3 clone 1480)	odorant receptor activation (OR4C46 K288R clone 1483)	odorant receptor activation (OR4C5 clone 1307)
CCCCCC(=O)O [caproic acid]	1.05	0.892	0.996	0.98	0.142	0.695	0.75	0.86	0.973	0.794
O=C1CCCCCCCCCCCC(=O)OCCO1 [ethylene brassylate]	1.86	1.49	1.43	1.3	2.06	1.14	1.49	1.38	1.16	1.63

# More entries

SMILES,odorant receptor activation (OR4B1 clone 1189),odorant receptor activation (OR4C11 clone 1244),odorant receptor activation (OR4C12 V283L clone 1155),odorant receptor activation (OR4C15 clone 1337),odorant receptor activation (OR4C15 clone 1449),odorant receptor activation [1],odorant receptor activation (OR4C3 clone 1284),odorant receptor activation (OR4C3 clone 1480),odorant receptor activation (OR4C46 K288R clone 1483),odorant receptor activation (OR4C5 clone 1307)
COc1ccccc1O [guaiacol],0.999,0.852 and 1.06,1.05,1 and 1.12,0.975,1.1,0.468 and 0.893,1.1 and 1.39,0.811 and 1.22,1.04 and 0.942
O=CCc1ccccc1 [phenyl acetaldehyde],0.736,1.14,0.806,1.21,1.59,1.89,1.23,1.33,1.25,1.32
CC/C=C\CCO [cis-3-hexen-1-ol],1.03,1.06,1.06,1.01,0.139,0.912,0.674,0.773,0.928,1.1
COc1cc(C=O)ccc1O [vanillin],0.66,0.979,0.95,1.02,1.05,0.75,1.12,0.978,0.998,1.33
CCCCO [1-butanol],1.07,1.24,0.989,1.06,1.04,0.833,0.899,1.02,1.28,1.4
COC(=O)c1ccccc1O [methyl salicylate],0.761,0.954,0.9,0.954,1.22,0.813,0.835,0.824,1.04,1.05
CC(=O)C(C)=O [diacetyl],1.16,1.23,1.44,1.14,1.36,0.897,1.42,1.22,1.17,1.25
"CC1CCC(C(C)C)C(O)C1 (single isomer, unassigned; (-)) [(-)-menthol]",1.15,0.519,1.22,0.854,0.887,1.47,0.597,3.57,5.15,1.04
CCCCCCCCCCC=O [undecanal],0.697,1.06,0.885,0.87,1.16,0.962,0.956,1.14,1.1,1.11
COC(=O)c1ccccc1 [methyl benzoate],0.801,0.932,0.911,0.47,1.41 and 0.902,,0.901,0.96 and 1.14,0.679 and 0.921,0.593
CC(=O)OC1CC2CCC1(C)C2(C)C (stereo not drawn) [isobornyl acetate],0.896,1.25 and 0.945,0.996,1.39 and 0.992,0.807,0.816,0.939 and 0.717,0.888 and 1.39,1 and 1.21,0.984 and 0.883
CCCCCCCC=CC=O [2-decenal],0.839,1.36,1.27,1.11,0.944,1.42,1.39,1.64,2.06,1.37
CC1COCc2cc3c(cc21)C(C)(C)C(C)C3(C)C (stereo not drawn) [galaxolide],0.643,,4.46,1.63 and 1.08,2.92,0.413 and 0.88,,,,1.08 and 2.57
CC12C=CCC1C1CCC3CC(=O)CCC3(C)C1CC2 (stereo not drawn) [androstenone],5.44,1.28,7.03,1.19,0.765,,1.31,0.844,1.1,1.39
CC(C)C(=O)O [isobutyric acid],0.879,0.912 and 0.914,1.08,1.32 and 1.17,0.739,1.04,0.908 and 0.808,0.987 and 1.18,1.16 and 0.94,1.11 and 0.941
CC(C)(C)c1ccc(CCC=O)cc1 [bourgeonal],0.676,0.708,0.745,0.727,0.129,,0.656,0.916,0.932,0.86
CC1=CCC(C(C)(C)O)CC1 (stereo not drawn) [terpineol],0.77,1.07,0.883,0.831,1.18,1.14,0.997,0.767,0.813,0.859
C=C(C)C1CC=CCC1 (stereo not drawn) [r-limonene],0.777 and 0.666,0.958 and 0.518,0.799 and 0.457,,1.33 and 0.843 and 0.641,1.09,0.788 and 0.484,0.953 and 0.915 and 0.824,1.02 and 0.433 and 0.835,
CCCCCCC=O [heptaldehyde],0.575 and 0.819,0.782 and 0.832 and 1.16,,,1.05 and 0.725 and 0.792,1.37,0.624 and 0.709 and 0.738,,,

SMILES,odorant receptor activation (OR4B1 clone 1189),odorant receptor activation (OR4C11 clone 1244),odorant receptor activation (OR4C12 V283L clone 1155),odorant receptor activation (OR4C15 clone 1337),odorant receptor activation (OR4C15 clone 1449),odorant receptor activation [1],odorant receptor activation (OR4C3 clone 1284),odorant receptor activation (OR4C3 clone 1480),odorant receptor activation (OR4C46 K288R clone 1483),odorant receptor activation (OR4C5 clone 1307)
CC1=NC(C)SC1C (stereo not drawn),1.23,1.56,0.834,2.63,1.01 and 0.823,,0.638,0.938 and 1.26,1.24 and 1.28,0.592
CCCCCC(C)=O [2-heptanone],0.88,2.8,1.24,1.16,0.882 and 0.605,,2.36,0.83 and 0.794,0.921 and 0.798,0.782
c1cnccn1 [pyrazine],0.751,0.754,0.667,0.659,1.17,0.803,0.827,0.797,0.697,0.874
O=C1CCCCCCCCCCCCCCO1 [pentadecalactone],0.648,0.751,0.605,0.86,1.32,0.969,0.67,0.745,0.76,0.815
CCCCCOC(C)=O [n-amyl acetate],0.714,0.951,0.497,0.318,0.942 and 0.729,1.12,0.511,0.808 and 0.977,0.595 and 0.747,0.31
C=CCc1ccc(OC(C)=O)c(OC)c1 [eugenol acetate],1.41,1.71,2.02,1.46,1.58,1.28,1.89,1.65,1.58,1.93
"CC1CCC(C(C)C)C(O)C1 (single isomer, unassigned; (+)) [(+)-menthol]",1.26,1.02,1.07,0.955,0.948,0.698,0.907,0.978,1.19,1.05
CCCCCCCCOC(C)=O [octyl acetate],0.948,0.978,1.1,1.26,0.963,0.766,1.33,0.729,0.917,1.02
CCCCCCCCCC=O [decyl aldehyde],1.29,1.59,1.31,1.09,1.57,0.8,1.46,1.04,1.2,1.41
CC=Cc1ccc(O)c(OC)c1 [isoeugenol],0.791,1.01 and 1.51,1.74,1.42 and 1.34,1.5,5.54,1.06 and 1.74,0.952 and 2.66,0.918 and 2.16,0.899 and 1.61
CC(C)=CCCC(C)=CC=O [citral],1,1.09,1.22,1.1,0.183,0.948,0.913,1.03,1.16,1.23
C=C(C)C1CCC2=CC(=O)CC(C)C2(C)C1 (stereo not drawn) [amyl laurate],,,,,,1.15,,,,
CCC1(O)C2(C)CCC(C2)C1(C)C (stereo not drawn) [2-ethylfenchol],1.18,1.12,1.29,1.01,0.772,0.846,0.936,1.2,1.27,0.866
CC(C)(O)CCCC1=CCC(C=O)CC1 (stereo not drawn) [lyral],,,,,,0.985,,,,
CC(=O)c1ccccc1 [acetophenone],1.03,1.96,1.17,1.33,0.889 and 0.665,,0.894,1 and 0.919,1.1 and 0.691,0.977
CC12C=CCC1C1CCC3=CC(=O)CCC3(C)C1CC2 (stereo not drawn) [androstadienone],0.732,1.01 and 1.27,1.35,1.21 and 1.11,1.04,,0.618 and 0.873,0.826 and 1.34,1.1 and 1.34,1.15 and 0.891
O=C1CCCCC1 [Cyclohexanone],0.59,0.456,0.641,0.465,0.861 and 0.838,,0.588,0.9 and 0.921,0.652 and 0.859,0.372
C=CCc1ccc(OC)c(OC)c1 [eugenol methyl ether],1.46,2.03,1.68,1.51,1.73,1.46,1.68,1.28,1.32,1.62
CC(C)C=O [isobutyraldehyde],0.898,0.966 and 0.986,1,1.14 and 1.09,0.861,0.874,0.898 and 0.877,0.968 and 1.34,0.99 and 0.989,1.03 and 0.804
